# Laboratory results taken from the supplement of paper PMC8256030.
# Where “and” joins values, the source holds several entries; their conditions need not be identical. Equal values may be shown once. The list shows a part of the results. Single values are uncertain here, since repeats match poorly.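 HEK293T cells were given each compound shortly before transfection with a reporter in which red mCherry is followed by the SARS-CoV-2 frameshift element and then GFP in the −1 frame, so GFP appears only after frameshifting.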
# Columns and labels:
# [1] = tested on: SARS-CoV-2 -1 PRF reporter mCherry-FSE-GFP(-1); assay: mCherry (red) intensity as percent of control; higher = higher upstream reporter expression; conditions: 10 µM; 24 h; HEK293T
# [2] = tested on: SARS-CoV-2 -1 PRF reporter mCherry-FSE-GFP(-1); assay: percent effect, decrease of GFP/mCherry ratio (-1 PRF reporter) relative to controls; higher = stronger frameshift inhibition; conditions: 10 µM; 24 h; HEK293T
Structure (SMILES),mCherry [1],percent effect [2]
CC1=C(/C=C/C(C)=C/C=C/C(C)=C/C(=O)Nc2ccc(O)cc2)C(C)(C)CCC1 [Fenretinide],315%,-19%
C=C[C@H]1CN2CC[C@H]1C[C@@H]2[C@@H](O)c1ccnc2ccc(OC)cc12,120% and 97.3%,3.87% and -7.29%
C#CCN(C)CCCOc1ccc(Cl)cc1Cl [clorgiline],138%,11.9%
NC(=O)C(c1ccccc1)(c1ccc(F)cc1)c1ccc(F)cc1 [senicapoc],72.7%,-1.83%
CC(=O)NC(CC(C)C)C(=O)O (stereo unspecified) [acetylleucine],90%,0.455%
COc1ccc(Cl)cc1C(=O)NCCc1ccc(C(=O)O)cc1 [meglitinide],96.9%,1.84%
CN(C)CCC[C@@]1(c2ccc(F)cc2)OCc2cc(C#N)ccc21 [escitalopram],107% and 122%,-4.25% and 3.77%
COc1cc2ncnc(N3CCN(C(=O)OCC(C)(C)O)CC3)c2cc1OC [hoquizil],53.8%,-9.58%
CCN(CC)CCOC(=O)c1ccc(N)cc1Cl [chloroprocaine],96.4%,-0.316%
CC(C)OC(=O)CCC/C=C\C[C@@H]1[C@@H](/C=C/C(F)(F)COc2ccccc2)[C@H](O)C[C@@H]1O [tafluprost],90.3%,-4.62%
OC1C(O)C(O)C(O)C(O)C1O (stereo unspecified),106%,-0.758%
CN1CC(=O)N2[C@H](c3ccc4c(c3)OCO4)c3[nH]c4ccccc4c3C[C@@H]2C1=O,107%,-1.31%
CCCCCCCCCCCCCCCC[N+](C)(C)CCN(Cc1ccc(OC)cc1)c1ncccn1 [tonzonium bromide],124%,-0.65%

# A few values from the results shown.
# Entry of `COc1cc2ncnc(N3CCN(C(=O)OCC(C)(C)O)CC3)c2cc1OC` [hoquizil] under percent effect [2]: -9.58%
# Entry of `CCCCCCCCCCCCCCCC[N+](C)(C)CCN(Cc1ccc(OC)cc1)c1ncccn1` [tonzonium bromide] under percent effect [2]: -0.65%
